According to the supplement of paper PMC7661543:
Differences between knockout arms are mostly noise.

System: MDA-MB-231
Test: relative cell number vs DMSO control (72 h) (% of DMSO); higher = less growth inhibition (more cells)
Method: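 QMAP-Seq: a pool of 5 breast cancer cell lines (ZR-75-1, SKBR3, HCC-38, MDA-MB-231, BT-20), each carrying 12 doxycycline-inducible Cas9 sgRNA perturbations (11 knockouts plus non-targeting sgNT), was treated with compounds for 72 h at four 10-fold doses (10 nM-10 uM or 1 nM-1 uM range). Barcodes were amplified and sequenced, and cell number was interpolated from 293T spike-in standard curves. The result is expressed as % of the median of DMSO wells. Two biological replicates.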

COc1cc2c(Oc3ccc4[nH]c(C)cc4c3F)ncnc2cc1OCCCN1CCCC1 [Cediranib]
Settings	relative cell number
sgRNA knockout: sgATF3, 10 nM	106
sgRNA knockout: sgATF3, 100 nM	109
sgRNA knockout: sgATF3, 1000 nM	104
sgRNA knockout: sgATF3, 10000 nM	17.9
sgRNA knockout: sgATF4, 10 nM	133
sgRNA knockout: sgATF4, 100 nM	151
sgRNA knockout: sgATF4, 1000 nM	129
sgRNA knockout: sgATF4, 10000 nM	21.1
sgRNA knockout: sgATF6, 10 nM	110
sgRNA knockout: sgATF6, 100 nM	116
sgRNA knockout: sgATF6, 1000 nM	90.2
sgRNA knockout: sgATF6, 10000 nM	14.7
sgRNA knockout: sgATG7, 10 nM	114
sgRNA knockout: sgATG7, 100 nM	97
sgRNA knockout: sgATG7, 1000 nM	115
sgRNA knockout: sgATG7, 10000 nM	20.3
sgRNA knockout: sgERN1, 10 nM	125
sgRNA knockout: sgERN1, 100 nM	105
sgRNA knockout: sgERN1, 1000 nM	116
sgRNA knockout: sgERN1, 10000 nM	16
sgRNA knockout: sgHSF1, 10 nM	98.2
sgRNA knockout: sgHSF1, 100 nM	101
sgRNA knockout: sgHSF1, 1000 nM	117
sgRNA knockout: sgHSF1, 10000 nM	16.5
sgRNA knockout: sgHSF2, 10 nM	109
sgRNA knockout: sgHSF2, 100 nM	92.6
sgRNA knockout: sgHSF2, 1000 nM	104
sgRNA knockout: sgHSF2, 10000 nM	16.6
sgRNA knockout: sgKEAP1, 10 nM	105
sgRNA knockout: sgKEAP1, 100 nM	98.9
sgRNA knockout: sgKEAP1, 1000 nM	102
sgRNA knockout: sgKEAP1, 10000 nM	13.5
sgRNA knockout: sgNFE2L2, 10 nM	128.2
sgRNA knockout: sgNFE2L2, 100 nM	114
sgRNA knockout: sgNFE2L2, 1000 nM	96
sgRNA knockout: sgNFE2L2, 10000 nM	12.4
sgRNA knockout: sgSLC35F2, 10 nM	107
sgRNA knockout: sgSLC35F2, 100 nM	86.4
sgRNA knockout: sgSLC35F2, 1000 nM	117.2
sgRNA knockout: sgSLC35F2, 10000 nM	16.7
sgRNA knockout: sgXBP1, 10 nM	105
sgRNA knockout: sgXBP1, 100 nM	107
sgRNA knockout: sgXBP1, 1000 nM	90.1
sgRNA knockout: sgXBP1, 10000 nM	12.7

Nc1ncn([C@H]2C[C@H](O)[C@@H](CO)O2)c(=O)n1 [Decitabine]
Settings	relative cell number
sgRNA knockout: sgATF3, 10 nM	128
sgRNA knockout: sgATF3, 100 nM	95.3
sgRNA knockout: sgATF3, 1000 nM	41
sgRNA knockout: sgATF3, 10000 nM	26.3
sgRNA knockout: sgATF4, 10 nM	89.2
sgRNA knockout: sgATF4, 100 nM	88.9
sgRNA knockout: sgATF4, 1000 nM	47.2
sgRNA knockout: sgATF4, 10000 nM	15.2
sgRNA knockout: sgATF6, 10 nM	90.5
sgRNA knockout: sgATF6, 100 nM	81.1
sgRNA knockout: sgATF6, 1000 nM	51.2
sgRNA knockout: sgATF6, 10000 nM	26.7
sgRNA knockout: sgATG7, 10 nM	91.5
sgRNA knockout: sgATG7, 100 nM	80
sgRNA knockout: sgATG7, 1000 nM	38.6
sgRNA knockout: sgATG7, 10000 nM	20.7
sgRNA knockout: sgERN1, 10 nM	94.2
sgRNA knockout: sgERN1, 100 nM	73.3
sgRNA knockout: sgERN1, 1000 nM	44.8
sgRNA knockout: sgERN1, 10000 nM	16.9
sgRNA knockout: sgHSF1, 10 nM	81.7
sgRNA knockout: sgHSF1, 100 nM	79.9
sgRNA knockout: sgHSF1, 1000 nM	40.2
sgRNA knockout: sgHSF1, 10000 nM	24.8
sgRNA knockout: sgHSF2, 10 nM	116.6
sgRNA knockout: sgHSF2, 100 nM	87.6
sgRNA knockout: sgHSF2, 1000 nM	36.5
sgRNA knockout: sgHSF2, 10000 nM	18.9
sgRNA knockout: sgKEAP1, 10 nM	103
sgRNA knockout: sgKEAP1, 100 nM	93.5
sgRNA knockout: sgKEAP1, 1000 nM	51.8
sgRNA knockout: sgKEAP1, 10000 nM	26.41
sgRNA knockout: sgNFE2L2, 10 nM	104
sgRNA knockout: sgNFE2L2, 100 nM	77.8
sgRNA knockout: sgNFE2L2, 1000 nM	40.4
sgRNA knockout: sgNFE2L2, 10000 nM	23.5
sgRNA knockout: sgSLC35F2, 10 nM	96.9
sgRNA knockout: sgSLC35F2, 100 nM	80.4
sgRNA knockout: sgSLC35F2, 1000 nM	31
sgRNA knockout: sgSLC35F2, 10000 nM	15.1
sgRNA knockout: sgXBP1, 10 nM	99.6
sgRNA knockout: sgXBP1, 100 nM	88.4
sgRNA knockout: sgXBP1, 1000 nM	35.7
sgRNA knockout: sgXBP1, 10000 nM	21.9
